From publication PMC12040651, “cAMP-independent Crp homolog adds to the multi-layer regulatory network in Porphyromonas gingivalis” come the findings set out here.

For at least one entry, the source does not settle the construct or the ends of the probe. At least one verdict rests on a figure or table, not on a statement of the authors. Where a protein sequence is shown, tags need not be part of it.

For this series, the target named is T1, CrpPg (Crp homolog) (Porphyromonas gingivalis A7436) (UniProt Q7MAW7).
T1 sequence (looked up, limits assumed): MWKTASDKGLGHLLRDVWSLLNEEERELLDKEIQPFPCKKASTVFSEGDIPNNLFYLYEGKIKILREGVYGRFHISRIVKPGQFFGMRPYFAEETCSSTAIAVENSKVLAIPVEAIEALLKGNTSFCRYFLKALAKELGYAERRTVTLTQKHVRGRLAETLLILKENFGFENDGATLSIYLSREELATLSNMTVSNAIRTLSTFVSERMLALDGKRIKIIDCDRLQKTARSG
The series is described as follows: EMSA. To be noted: recombinant protein, protein details: 6xHis-MBP N-terminal, removed with Factor Xa, letters put together from the description.

Take “AGCTGTTCAGGTGAAGTTCATGCAGAATAGTGTGCAAGAGTATAGAATTGTAGAGATTATGGGTTCGGATATGTGATAACGAGGATTCATCGTTAAGTTTATCCGGTTTTATAGTCTTGAGCGTTTTGTGTTTTATAGTCTTTCTTTCGACGTTTTTAGAATCAATTTAATATTAATCCTTTTAAACATTTGGCTTATGAAGTTAAACAAAATGTTTTTGGTCGGAGCATTGCTCTCATTGGGCT (double strand) [mfa full promoter (fragments 1-5)]”: the binding result (label: 5' biotin via PBM_0209) is given as “binds”.
For “TATTTTTTACTGATTTCCGGATAAGTAACCTCCTTATTTTGTGGTTATTCCGACTTTCAGACTTATTTTTGCAATATACAAGGATGGAAGATATTGATAGAGAAGCACTTTCCCCTCGATTCTTCGCCGGATCTCATAATAATAGTTCTACGGCCTTTCTTCCTCGTTGTACGGATTTGAGCAAATAGACATTCTCTGAACACTTATATGTGGAAGACAGCTTCGGATAAAGGATTGGGACACTTGCTTAGAGATGTTTGGTCT (double strand) [crpPg full promoter (fragments 1-5)]”, the binding result (label: 5' biotin via PBM_0263) is reported as “binds”.
